Construct, isoform or probe ends are uncertain for at least one entry. Negatives hold for the conditions tested. Protein sequences can lack the tags named with them.
Biological target: T1, phAimR wild type (Bacillus phage phi3T) (UniProt P0DOE3)
T1 sequence (looked up, limits assumed): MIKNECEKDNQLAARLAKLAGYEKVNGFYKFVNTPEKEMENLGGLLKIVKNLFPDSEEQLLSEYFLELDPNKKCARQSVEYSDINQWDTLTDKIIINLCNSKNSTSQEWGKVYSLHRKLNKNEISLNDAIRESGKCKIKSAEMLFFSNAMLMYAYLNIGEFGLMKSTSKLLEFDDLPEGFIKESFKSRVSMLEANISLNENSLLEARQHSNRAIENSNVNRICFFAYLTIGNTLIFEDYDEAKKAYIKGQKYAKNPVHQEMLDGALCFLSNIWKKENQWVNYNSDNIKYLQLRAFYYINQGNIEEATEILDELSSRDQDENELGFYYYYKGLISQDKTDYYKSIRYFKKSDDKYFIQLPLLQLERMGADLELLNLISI
Test: EMSA
Conditions: SAIRGA peptide, 10-fold molar excess, 5 mM MgCl2; EMSA: 25 mM Tris-HCl pH 8.0, 150 mM NaCl, 5 mM MgCl2, 5 mM DTT, 0.1 mg/mL BSA, 10% glycerol, room temperature 10 min, 5 nM probe, protein 0-1 (printed 'M', probably uM); recombinant protein; protein details: N-terminal 6xHis removed with drICE protease; label: FAM

“GAAATGTCCAGAAATTCAAAAATCAAAAAATAAGAACATGG (double strand) [phi3T target DNA 41 bp, FAM probe]”: no binding.

From article PMC8464984, “AimR Adopts Preexisting Dimer Conformations for Specific Target Recognition in Lysis-Lysogeny Decisions of Bacillus Phage phi3T” (Biomolecules, 2021)
